Reference: US20230167179A1 (CENTRE NATIONAL DE LA RECHERCHE SCIENTIFIQUE, published 2023)
These are yes or no findings as the source states them, for the method shown. Some results given as binding are weak or reduced against the parent protein; the word gives no strength. Values belong to the binder of their own block, whether it stands above or below them.

The chains behind the UniProt entries cited, without tags or fusion partners. Where a name states a change or a piece, a line headed by the entry shows the natural chain unless it says otherwise.
UniProt P18510: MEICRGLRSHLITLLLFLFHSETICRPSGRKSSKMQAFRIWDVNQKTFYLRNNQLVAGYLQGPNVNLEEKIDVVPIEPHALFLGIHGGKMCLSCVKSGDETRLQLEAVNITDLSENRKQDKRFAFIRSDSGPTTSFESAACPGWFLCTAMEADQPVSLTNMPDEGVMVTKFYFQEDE

Columns and labels:
[1] = target: native IL-1RA produced by human cells (human) (UniProt P18510); experiment: sandwich ELISA, OD 450 nm, capture antibody 1 µg/well, 10 µl of supernatant of THP1 cells with or without PMA, biotinylated detection antibody
[2] = target: native IL-1RA produced by human cells (human) (UniProt P18510); experiment: sandwich ELISA on diluted human sera
[3] = target: native IL-1RA produced by human cells (human) (UniProt P18510); experiment: sandwich ELISA with antibody pairs, supernatant of PMA-stimulated THP1 cells

binding [1]: binds
binding [2]: binds
binding [3]: binds
B1: 908.10E12C1 (antibody, IgG1, V domains shown)
VH: EVQLQQSGPELVKPGASVKISCKTSGYTFTEYTMHWVKQSHGKSLEWIGSINPNNGGTNYNQKFKGKATLTVDKSSNTAYMELRSLTSGDSAVYYCARTLYYAMDYWGQGTSVTVSS
VL: DIVMTQSPSSLAMSVGQKVTMSCKSSQSLLNSSNQKNYLAWYQQKPRQSPKLLVYFASTRDSGVPDRFLGSGSGTDFTLTINRVQAEDLADYFCQQHYILPPTFGAGTKLELK

binding [1]: binds
binding [2]: binds
binding [3]: binds
B2: 908.9E11B6 (antibody, IgG1, V domains shown)
VH: QVQLKESGPGLVAPSQSLSITCTVSGFSLTSYGVHWVRQPPGKGLEWLGVIWAGGVTHYNSALMSRLNISKDNSQSQVFLKMNSLRTDDTAMYYCARGGALLRSHFDYWGQGTTLTVSS
VL: QAVVTQESALTTSPGETVTLTCRSSTGAVTTSNYANWVQEKPDHLFTGLIGGTNNRAPGVPARFSGSLIGDKAALTITGAQTEDEAIYHCALWYSNLWVFGGRTKLTVL

binding [1]: binds
binding [2]: binds
binding [3]: binds
B3: 908.9G5B9 (antibody, V domains shown)
VH: EVQLQQSGAELVKPGASVKLSCTVSGFNITDTYIHWVKQRPEKGLEWIGRIDPANGNTKYDPKLQGKATITADTSSNTAYLQLSSLTSEDTAVYYCARDGTYVYYAMDYWGQGTSVTVSS
VL: DIQMTQSPASLSASVGETVTITCRASENIFIYLAWYQQKQGKSPQLLVYNAKTLAEGVPSRFSGSGSGTQFSLKINSLLPEDFGSYYCQHHYGIPFTFGSGTKLEIE
notes: Biotinylated in the Octet assay; fixed (capture) antibody in the sandwich ELISAs
